No constants are given. Whether binding was seen depends on the method and setting. Binding seen in cells or lysates may run through a third protein. Some entries that bind do so weakly or less than the wild type.
Target: GFP-MoYpt7 (Magnaporthe oryzae) (UniProt G4MYS1)
Test: co-IP

Chains of the proteins cited; added tags and fusions are not shown.
UniProt G4MYS1: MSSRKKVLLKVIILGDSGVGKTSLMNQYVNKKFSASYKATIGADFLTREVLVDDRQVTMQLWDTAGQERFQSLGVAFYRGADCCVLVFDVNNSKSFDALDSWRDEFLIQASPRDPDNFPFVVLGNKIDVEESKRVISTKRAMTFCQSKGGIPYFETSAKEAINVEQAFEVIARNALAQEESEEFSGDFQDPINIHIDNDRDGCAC

MoVps35-FLAG (from UniProt G4N4D6 1-898)
binding: binds

Reference: article PMC7814966
